Experimental data as given in publication PMC4601075, “Specific binding of eukaryotic ORC to DNA replication origins depends on highly conserved basic residues” (Scientific Reports, 2015).
Results are given in words; binding and its absence hold for the method and conditions named. Some binding calls cover weakened binding; strength is not graded here. Where a sequence is shown, tags or fusion partners need not be part of it. Values belong to the binder of their own block, whether it stands above or below them.

Molecular target: T1, ScOrc1-TEV-His (S. cerevisiae), P54784
T1 chain: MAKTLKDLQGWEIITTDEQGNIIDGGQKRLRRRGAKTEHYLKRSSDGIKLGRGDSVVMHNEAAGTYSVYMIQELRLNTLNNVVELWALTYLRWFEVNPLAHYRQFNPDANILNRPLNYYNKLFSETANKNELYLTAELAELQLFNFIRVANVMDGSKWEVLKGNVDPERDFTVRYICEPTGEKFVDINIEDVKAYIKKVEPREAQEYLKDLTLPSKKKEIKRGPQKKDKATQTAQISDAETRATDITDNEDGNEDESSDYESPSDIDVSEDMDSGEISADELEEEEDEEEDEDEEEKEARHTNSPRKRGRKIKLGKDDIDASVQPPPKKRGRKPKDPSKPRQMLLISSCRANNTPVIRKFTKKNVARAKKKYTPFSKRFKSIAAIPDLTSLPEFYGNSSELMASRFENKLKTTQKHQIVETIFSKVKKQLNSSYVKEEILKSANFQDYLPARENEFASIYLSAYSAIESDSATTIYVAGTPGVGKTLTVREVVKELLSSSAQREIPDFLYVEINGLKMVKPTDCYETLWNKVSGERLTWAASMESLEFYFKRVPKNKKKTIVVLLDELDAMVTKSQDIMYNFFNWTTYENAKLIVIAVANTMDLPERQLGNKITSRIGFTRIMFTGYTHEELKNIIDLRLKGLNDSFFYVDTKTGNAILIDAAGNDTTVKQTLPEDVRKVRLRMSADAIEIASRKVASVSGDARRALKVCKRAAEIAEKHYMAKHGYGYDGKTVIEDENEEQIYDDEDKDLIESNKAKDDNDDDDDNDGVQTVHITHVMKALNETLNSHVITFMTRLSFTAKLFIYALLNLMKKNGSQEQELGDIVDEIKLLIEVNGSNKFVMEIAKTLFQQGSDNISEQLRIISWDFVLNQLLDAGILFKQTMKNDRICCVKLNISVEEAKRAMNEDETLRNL
Assay: co-purification (affinity column, then gel filtration); Orc1-TEV-His co-overexpressed with Orc2/3/4/5/6 in 293T cells; affinity-purified, fractionated on Superdex 200; fractions on 9% SDS-PAGE, Coomassie staining
Conditions: remark: other sources report otherwise

binding: binds
B1: ScOrc2, P32833 1-620 (protein)
chain: MLNGEDFVEHNDILSSPAKSRNVTPKRVDPHGERQLRRIHSSKKNLLERISLVGNERKNTSPDPALKPKTPSKAPRKRGRPRKIQEELTDRIKKDEKDTISSKKKRKLDKDTSGNVNEESKTSNNKQVMEKTGIKEKREREKIQVATTTYEDNVTPQTDDNFVSNSPEPPEPATPSKKSLTTNHDFTSPLKQIIMNNLKEYKDSTSPGKLTLSRNFTPTPVPKNKKLYQTSETKSASSFLDTFEGYFDQRKIVRTNAKSRHTMSMAPDVTREEFSLVSNFFNENFQKRPRQKLFEIQKKMFPQYWFELTQGFSLLFYGVGSKRNFLEEFAIDYLSPKIAYSQLAYENELQQNKPVNSIPCLILNGYNPSCNYRDVFKEITDLLVPAELTRSETKYWGNHVILQIQKMIDFYKNQPLDIKLILVVHNLDGPSIRKNTFQTMLSFLSVIRQIAIVASTDHIYAPLLWDNMKAQNYNFVFHDISNFEPSTVESTFQDVMKMGKSDTSSGAEGAKYVLQSLTVNSKKMYKLLIETQMQNMGNLSANTGPKRGTQRTGVELKLFNHLCAADFIASNEIALRSMLREFIEHKMANITKNNSGMEIIWVPYTYAELEKLLKTVLNTL

binding: binds
B2: ScOrc6, P38826 1-435 (protein)
chain: MSMQQVQHCVAEVLRLDPQEKPDWSSGYLKKLTNATSILYNTSLNKVMLKQDEEVARCHICAYIASQKMNEKHMPDLCYYIDSIPLEPKKAKHLMNLFRQSLSNSSPMKQFAWTPSPKKNKRSPVKNGGRFTSSDPKELRNQLFGTPTKVRKSQNNDSFVIPELPPMQTNESPSITRRKLAFEEDEDEDEEEPGNDGLSLKSHSNKSITGTRNVDSDEYENHESDPTSEEEPLGVQESRSGRTKQNKAVGKPQSELKTAKALRKRGRIPNSLLVKKYCKMTTEEIIRLCNDFELPREVAYKIVDEYNINASRLVCPWQLVCGLVLNCTFIVFNERRRKDPRIDHFIVSKMCSLMLTSKVDDVIECVKLVKELIIGEKWFRDLQIRYDDFDGIRYDEIIFRKLGSMLQTTNILVTDDQYNIWKKRIEMDLALTEPL
